From patent US20190077876A1 (AbbVie / Abbott, published 2019)
These are yes or no findings as the source states them, for the method shown. Some entries that bind do so weakly or less than the wild type.

Amino acid sequences for entries named in this document (tags omitted).
UniProt O35054: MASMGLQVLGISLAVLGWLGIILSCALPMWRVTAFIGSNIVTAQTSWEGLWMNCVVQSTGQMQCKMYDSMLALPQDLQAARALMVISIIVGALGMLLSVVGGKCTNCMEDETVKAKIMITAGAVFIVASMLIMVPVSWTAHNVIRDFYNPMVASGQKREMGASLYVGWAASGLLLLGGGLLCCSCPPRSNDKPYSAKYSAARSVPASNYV

Legend:
rat CLDN4 protein (rat) = biological target: T1, rat CLDN4 protein (rat) (UniProt Q5XIT8); assay: flow cytometry (data not shown)
T1 sequence: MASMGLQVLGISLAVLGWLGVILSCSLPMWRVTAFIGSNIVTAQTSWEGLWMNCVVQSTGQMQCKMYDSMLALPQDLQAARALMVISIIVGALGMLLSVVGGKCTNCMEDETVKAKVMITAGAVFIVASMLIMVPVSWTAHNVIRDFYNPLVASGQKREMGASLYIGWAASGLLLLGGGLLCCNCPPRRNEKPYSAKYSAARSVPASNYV

[1] = biological target: mouse CLDN4 protein (mouse) (UniProt O35054); assay: flow cytometry (data not shown)
human CLDN4 protein [2] = biological target: T2, human CLDN4 protein (human, UniProt O14493 1-209); assay: flow cytometry, 10 µg/ml antibody on stably transduced HEK-293T cells
T2 sequence (looked up): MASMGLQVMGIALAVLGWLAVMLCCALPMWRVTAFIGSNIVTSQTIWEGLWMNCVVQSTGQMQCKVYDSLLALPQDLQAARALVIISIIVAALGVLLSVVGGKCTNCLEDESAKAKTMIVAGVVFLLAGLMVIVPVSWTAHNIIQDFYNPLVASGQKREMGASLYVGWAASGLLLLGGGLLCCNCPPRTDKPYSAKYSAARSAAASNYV

human CLDN6 protein [3] = biological target: T3, human CLDN6 protein (human, UniProt P56747 1-220); assay: as above
T3 sequence (looked up): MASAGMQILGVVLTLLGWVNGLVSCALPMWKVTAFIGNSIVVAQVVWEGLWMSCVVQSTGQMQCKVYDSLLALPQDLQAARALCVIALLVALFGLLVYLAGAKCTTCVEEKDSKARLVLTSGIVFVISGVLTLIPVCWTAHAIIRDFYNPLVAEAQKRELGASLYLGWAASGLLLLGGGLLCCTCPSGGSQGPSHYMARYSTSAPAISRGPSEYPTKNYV

human CLDN9 protein [4] = biological target: T4, human CLDN9 protein (human, UniProt O95484 1-217); assay: as above
T4 sequence (looked up): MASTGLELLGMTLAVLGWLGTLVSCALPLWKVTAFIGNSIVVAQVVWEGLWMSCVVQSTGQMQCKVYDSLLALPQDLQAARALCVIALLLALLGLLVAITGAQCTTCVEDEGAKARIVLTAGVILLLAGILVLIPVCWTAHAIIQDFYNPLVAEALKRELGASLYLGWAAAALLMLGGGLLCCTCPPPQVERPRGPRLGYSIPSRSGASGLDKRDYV

human CLDN4 protein [5] = biological target: T2, human CLDN4 protein; assay: flow cytometry on HEK-293T cells overexpressing the CLDN protein
human CLDN6 protein [6] = biological target: T3, human CLDN6 protein; assay: as above
human CLDN9 protein [7] = biological target: T4, human CLDN9 protein; assay: as above

Measured: binding

B1: SC27.22 mouse monoclonal anti-CLDN antibody (antibody, V domains shown)
VH: QVQLQQPGAELVRPGASVKLSCKASGYTFTSYWMNWVKQRPGQGLEWIAMIHPSDSEIRLNQKFKDKATLTVDRSSSTAYMQLSSPTSEDSAVYYCARIDSYYGYLFYFDYWGQGTTLTVSS
VL: DIVLTQSPASLAVSLGQRATISCRASQTVSTSSYSYMHWFQQKPGQPPKLLIKFASNVESGVPARFSGSGSGTDFTLNIHPVEEEDISTYYCQHSWEIPWTFGGGTKLEIK
binds: all assays above

B2: SC27.1 mouse monoclonal anti-CLDN antibody (antibody, V domains shown)
VH: EVQLQESRPELVKPGASVKISCKTSGYTFTEYTLHWVKQSHGKSLEWIGGINPNNGDTIYNQKFKGKATLTVDKSSSTAYMELRSLTSEYSAVYYCARRAITVYAMDYWGQGTSVTVSS
VL: DIQMTQSSSSFSVSLGDRVTITCKASEDIYNRLAWYQQKPGNAPRLLISGATSLETGTPSRFSGSGSGKDYTLSITSLRTEDAATYYCQQYWSTPLTFGTGTKLELK
binds: all assays above
